# According to patent publication US8648078B2, “PLK inhibitor salts” (Nerviano Medical Sciences S.R.L., priority 2009, dated 2014):
# Some entries share one result that the patent states for a list of compounds. At least one compound was matched to its structure with a doubt left.
# Experiment: Powder bulk density by manual filling of hard gelatin capsules
# Type: physicochemical
# Conditions: freely settled powder in hard gelatin capsule
smiles,measurement,value
CN1CCN(c2ccc(OC(F)(F)F)c(Nc3ncc4c(n3)-c3c(c(C(N)=O)nn3CCO)CC4)c2)CC1.O=C(O)C[C@H](O)C(=O)O [compound 937 L-malate salt],powder bulk density,greater than 240 mg/ml
